Measurements reported in PubChem BioAssay AID1159595 (NIAID, 2016).

Aim: 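Contribution of 126 core TLR signalling genes to the Pam3CSK4 inflammatory response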 (primary screen)
Cell system: mouse RAW264.7 macrophage reporter cells
Knock-down reagent: single siRNA against mouse genes
Time to read-out: assayed 48 to 72 hours after siRNA transfection; ligand applied for 16 hours
Treatment: Pam3CSK4 (TLR2 ligand) for 16 hours before fixation; dose not given
Read-out: 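High-content imaging of Tnf promoter-driven nuclear mCherry in cells given Pam3CSK4 for 16 h, 48–72 h after transfection; value is the replicate mean of plate-normalised background-corrected robust z-scores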
Reading the numbers: Tnf reporter z-score (replicate mean): higher = stronger Tnf promoter reporter signal than negative control wells
Rule for the call: 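An siRNA is active when its replicate-mean z-score is -1.5 or lower or 1.5 or higher (activity score at least 50); activity graded at absolute z 1, 1.5, 2 and 2.5; calls apply to single siRNAs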
Meaning of the calls: active = strong change (up or down); inactive = little change
In all, the deposit lists 756 reagents; below is a random part of them. Over the whole deposit, 115 (15%) got an active call. 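Active calls cover both lowered and raised reporter signal; each score refers to one siRNA rather than a whole gene.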 A number with no mark means an inactive call. Reagents against one gene are numbered here. Not stated in the record: the amount of reagent.

Against Ly96 (GeneID 17087) #1, the values are Tnf reporter z-score (replicate mean) = 1.12.
Against Ly96 (GeneID 17087) #2, the values are Tnf reporter z-score (replicate mean) = -0.794.
After knock-down of Ly96 (GeneID 17087) #3, the record shows Tnf reporter z-score (replicate mean) = -0.671.
With knock-down of Ly96 (GeneID 17087) #4, the screen gave Tnf reporter z-score (replicate mean) = 0.546.
Against Ly96 (GeneID 17087) #5, the values are Tnf reporter z-score (replicate mean) = -0.243.
After knock-down of Ly96 (GeneID 17087) #6 the results were Tnf reporter z-score (replicate mean) = -0.674.
Depletion of Tlr9 (GeneID 81897) #1 came out at: Tnf reporter z-score (replicate mean) = -0.738.
Tlr9 (GeneID 81897) #2 scored Tnf reporter z-score (replicate mean) = -1.33.
Tlr9 (GeneID 81897) #3 showed Tnf reporter z-score (replicate mean) = 1.3.
Silencing of Tlr9 (GeneID 81897) #4 came out at: Tnf reporter z-score (replicate mean) = -0.247.
For Tlr9 (GeneID 81897) #5, the values are Tnf reporter z-score (replicate mean) = -1.67 (active).
Silencing of Tlr9 (GeneID 81897) #6 resulted in: Tnf reporter z-score (replicate mean) = -0.414.
For Map2k6 (GeneID 26399) #1, the values are Tnf reporter z-score (replicate mean) = -0.777.
After knock-down of Map2k6 (GeneID 26399) #2, the record shows Tnf reporter z-score (replicate mean) = 0.415.
Knock-down of Map2k6 (GeneID 26399) #3 gave: Tnf reporter z-score (replicate mean) = -0.819.
Map2k6 (GeneID 26399) #4 gave Tnf reporter z-score (replicate mean) = 0.359.
Map2k6 (GeneID 26399) #5 gave Tnf reporter z-score (replicate mean) = -0.651.
After knock-down of Map2k6 (GeneID 26399) #6, the record shows Tnf reporter z-score (replicate mean) = 1.05.
Depletion of Crebbp (GeneID 12914) #1 resulted in: Tnf reporter z-score (replicate mean) = 0.734.
After knock-down of Crebbp (GeneID 12914) #2, the screen gave Tnf reporter z-score (replicate mean) = -1.59 (active).
Against Crebbp (GeneID 12914) #3, the entry reads Tnf reporter z-score (replicate mean) = -1.11.
For Crebbp (GeneID 12914) #4, the values are Tnf reporter z-score (replicate mean) = -0.535.
With knock-down of Crebbp (GeneID 12914) #5, the record shows Tnf reporter z-score (replicate mean) = -3.16 (active).
After knock-down of Crebbp (GeneID 12914) #6 the results were Tnf reporter z-score (replicate mean) = -1.32.
Ets1 (GeneID 23871) #1 scored Tnf reporter z-score (replicate mean) = -0.567.
Silencing of Ets1 (GeneID 23871) #2 came out at: Tnf reporter z-score (replicate mean) = 1.56 (active).
With knock-down of Ets1 (GeneID 23871) #3, the record shows Tnf reporter z-score (replicate mean) = -0.577.
Against Ets1 (GeneID 23871) #4, the values are Tnf reporter z-score (replicate mean) = 1.04.
With knock-down of Ets1 (GeneID 23871) #5, the record shows Tnf reporter z-score (replicate mean) = -0.486.
Ets1 (GeneID 23871) #6 gave Tnf reporter z-score (replicate mean) = -1.4.
Knock-down of Tbk1 (GeneID 56480) #1 came out at: Tnf reporter z-score (replicate mean) = -0.381.
Tbk1 (GeneID 56480) #2 scored Tnf reporter z-score (replicate mean) = 0.329.
Silencing of Tbk1 (GeneID 56480) #3 resulted in: Tnf reporter z-score (replicate mean) = -0.322.
After knock-down of Tbk1 (GeneID 56480) #4 the results were Tnf reporter z-score (replicate mean) = 0.274.
After knock-down of Tbk1 (GeneID 56480) #5 the results were Tnf reporter z-score (replicate mean) = 0.473.
Against Tbk1 (GeneID 56480) #6 the deposit lists Tnf reporter z-score (replicate mean) = 1.14.
Against Mapk13 (GeneID 26415) #1, the values are Tnf reporter z-score (replicate mean) = -1.47.
For Mapk13 (GeneID 26415) #2, the values are Tnf reporter z-score (replicate mean) = -1.19.
For Mapk13 (GeneID 26415) #3, the entry reads Tnf reporter z-score (replicate mean) = -0.851.
With knock-down of Mapk13 (GeneID 26415) #4 the results were Tnf reporter z-score (replicate mean) = -1.07.
Knock-down of Mapk13 (GeneID 26415) #5 resulted in: Tnf reporter z-score (replicate mean) = -0.637.
Mapk13 (GeneID 26415) #6 showed Tnf reporter z-score (replicate mean) = -1.28.
Silencing of Il12a (GeneID 16159) #1 gave: Tnf reporter z-score (replicate mean) = 0.492.
Knock-down of Il12a (GeneID 16159) #2 gave: Tnf reporter z-score (replicate mean) = -1.87 (active).
For Il12a (GeneID 16159) #3, the entry reads Tnf reporter z-score (replicate mean) = -0.93.
Il12a (GeneID 16159) #4 scored Tnf reporter z-score (replicate mean) = -0.525.
Silencing of Il12a (GeneID 16159) #5 gave: Tnf reporter z-score (replicate mean) = -1.52 (active).
For Il12a (GeneID 16159) #6, the values are Tnf reporter z-score (replicate mean) = 0.563.
